Assay results: patent US20030148913A1, “Hard surface cleaners which provide improved fragrance retention properties to hard surfaces” (priority 2001, published 2003)

Experiment: Fogging measurements on mirror cleaned with aqueous solution (Example 9)
Details: for fogging resistance (observation): 0.1% w/v aqueous solution, mirror over steaming water bath at 80° C

Substance	fogging resistance (observation)	level in composition conferring good anti-fogging performance (as little as) (treated surfaces) [%]
C12H5(OC2H4)3(OC3H6)6OH [Dehypon LS36]	Fogging after 2 min	–
C12H25(OC2H4)5(OC3H6)4OH [Dehypon LS54]	Fogging after 2 min	0.25
